Source: patent US20190361013A1
These are yes or no findings as the source states them, for the method shown. For part of these data: Binding can be weak; no strength is given. Tags and fused reporters may be left off the sequences shown. For part of these data: Binding seen in cells or lysates may run through a third protein.

Legend:
His-AcH3 [1] = assay: summary of the ELISA binding curves
His-AcH3 [2] = assay: direct ELISA binding curve, antigen coated at 10 uM
His-AcH3 [3] = assay: co-immunoprecipitation on anti-HA agarose, Western blot
His-AcH3 [4] = assay: ELISA dilution binding curve, antigen coated on solid phase
His-AcH3 [5] = assay: co-immunoprecipitation on anti-HA agarose, anti-His Western blot
His-H3 = assay: as above

Measured: binding

B1: ScFv-58F-HA (scFv, not shown: small tags and cut ends)
scFv: DILMTQSPAIMSASPGEKVTMTCRASSSVSSSYLHWYQQKSGASPKLWIYSTSNLASGVPARFSGSGSGTSYSLTISSVEAEDAATYYCQQYSGYPWTSGGGTKLEIKRSGGSTSGSGKPGSGEGSSSTEVKVEESGGGLVQPGGSMKLSCVASGFTFSNYWMNWVRQSPEKGLEWVAEIRLKSNNYATHYAESVKGRFTISRDDSESSVYLQMNNLRAEDTGIYYCTRRNGPSSRAMDYWGQGTTVTVSS
no binding (tested: 2 ug of antigen): His-H3
binds: all other assays above
